We go through three molecules from US20180177842A1 (CANIMGUIDE THERAPEUTICS, published 2018).

Amino acid sequences for entries named in this document (tags omitted). A change or cut given only in a name is not applied to a line headed by its entry.
UniProt P20701: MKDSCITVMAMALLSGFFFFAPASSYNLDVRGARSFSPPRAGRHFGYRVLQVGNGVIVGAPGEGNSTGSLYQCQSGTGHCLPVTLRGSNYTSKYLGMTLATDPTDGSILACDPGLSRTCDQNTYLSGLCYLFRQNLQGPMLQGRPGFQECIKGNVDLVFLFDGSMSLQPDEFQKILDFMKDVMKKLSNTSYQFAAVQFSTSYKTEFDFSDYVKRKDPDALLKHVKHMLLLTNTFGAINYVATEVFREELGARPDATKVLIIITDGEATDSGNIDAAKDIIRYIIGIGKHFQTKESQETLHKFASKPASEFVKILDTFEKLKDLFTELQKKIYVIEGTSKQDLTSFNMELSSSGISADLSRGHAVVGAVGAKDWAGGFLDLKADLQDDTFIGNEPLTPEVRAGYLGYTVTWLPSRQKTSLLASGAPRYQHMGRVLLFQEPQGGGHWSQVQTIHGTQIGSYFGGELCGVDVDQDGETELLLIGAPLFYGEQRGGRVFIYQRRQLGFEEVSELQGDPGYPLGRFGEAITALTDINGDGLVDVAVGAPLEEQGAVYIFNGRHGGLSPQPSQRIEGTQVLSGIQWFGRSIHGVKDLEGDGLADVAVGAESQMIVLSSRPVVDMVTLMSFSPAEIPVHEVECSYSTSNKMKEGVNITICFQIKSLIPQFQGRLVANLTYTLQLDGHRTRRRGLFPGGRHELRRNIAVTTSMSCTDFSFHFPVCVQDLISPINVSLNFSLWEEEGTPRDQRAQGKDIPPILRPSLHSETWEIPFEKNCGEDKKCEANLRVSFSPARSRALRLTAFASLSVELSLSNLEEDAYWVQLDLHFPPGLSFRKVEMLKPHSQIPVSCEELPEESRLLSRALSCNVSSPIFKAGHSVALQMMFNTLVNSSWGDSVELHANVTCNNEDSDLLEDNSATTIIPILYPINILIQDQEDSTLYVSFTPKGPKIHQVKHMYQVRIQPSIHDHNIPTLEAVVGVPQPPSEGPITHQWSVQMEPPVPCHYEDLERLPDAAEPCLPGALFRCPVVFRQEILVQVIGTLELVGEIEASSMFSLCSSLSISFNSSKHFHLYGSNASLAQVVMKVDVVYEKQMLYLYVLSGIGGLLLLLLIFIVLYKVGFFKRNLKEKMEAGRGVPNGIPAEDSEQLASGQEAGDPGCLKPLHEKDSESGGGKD

No constants are given. Whether binding was seen depends on the method and setting. Some results given as binding are weak or reduced against the parent protein; the word gives no strength. For some of these results: Sequences can lack the tags named with a protein.

Experiment [1] deals with T1, His-tagged P3028 (PGE73) (human, also: His tag, length and end not given here).
T1 construct: the tag is put first here only for want of a statement; also called His-tag-P3028; not shown: His tag
T1 peptide: VFDEFKPLVEEPQNLIK
The experiment can be described thus: PEPSCAN ELISA: peptide on chip, His-tagged P3028 in solution.

Experiment [2] has as its target T1, His-tagged P3028 (PGE73). The experiment can be described thus: peptide at 0.5 mg/mL in solution with His-tagged P3028 on a PEPSCAN chip.
For experiment [3], the target named is LFA-1 (human) (UniProt P20701). Briefly: summary.
In experiment [4] the target is LFA-1 (human) (UniProt P20701). The experiment can be described thus: summary of anti-LFA-1 staining of PBMCs and of the CD25 ELISA. For orientation: In an ELISA, binding on a coated surface is turned into a signal by an enzyme label.

For the molecule KKLDTFFVGLSLFTER [SEQ ID NO 98], the binding result with His-tagged P3028 (PGE73) [1] is “binds”. Consider KKLDTFFKKLSLFTE [SCF28], for which the binding result in the experiment with His-tagged P3028 (PGE73) [2] is given as “binds”. As to VFDEFKPLVEEPQNLIK [P3028], the binding entry with LFA-1 (human) [3] and with LFA-1 (human) [4] was “binds” throughout.
